{
  "source": "patent US20250034202A1",
  "about": "(The General Hospital Corporation, priority 2021, published 2025)",
  "molecular_target": "BRD4 (Homo sapiens, UniProt O60885)",
  "test": "Rescue of CS-JQ1-induced BRD4 degradation by co-treatment",
  "assay_type": "cell-based",
  "conditions": "CS-JQ1 250 nM, CDDO-Me 1 μM, MDA-MB-231 cells",
  "note": "Entries after “also recorded” stand apart in the source; their conditions may differ. At least one structure is not confirmed: it was looked up by name or label, or the drawing left a doubt.",
  "data": [
    {"smiles": "COC(=O)[C@]12CCC(C)(C)C[C@H]1[C@H]1C(=O)C=C3[C@@]4(C)C=C(C#N)C(=O)C(C)(C)[C@@H]4CC[C@@]3(C)[C@]1(C)CC2", "note": "[CDDO-Me, bardoxolone methyl]", "values": [
      {"measurement": "Attenuation of CS-JQ1-induced BRD4 degradation by CDDO-Me co-treatment", "result": "did not increase BRD4 levels; also recorded: did not reduce the efficacy of CS-JQ1; also recorded: does not attenuate BRD4 degradation"}
    ]}
  ]
}
